According to US20050101769A1:
These are yes or no findings as the source states them, for the method shown. For part of these data: Binding seen in cells or lysates may run through a third protein. Some results given as binding are weak or reduced against the parent protein; the word gives no strength. For part of these data: Sequences can lack the tags named with a protein.

The chains behind the UniProt entries cited, without tags or fusion partners. Residues count along the entry.
UniProt Q13546: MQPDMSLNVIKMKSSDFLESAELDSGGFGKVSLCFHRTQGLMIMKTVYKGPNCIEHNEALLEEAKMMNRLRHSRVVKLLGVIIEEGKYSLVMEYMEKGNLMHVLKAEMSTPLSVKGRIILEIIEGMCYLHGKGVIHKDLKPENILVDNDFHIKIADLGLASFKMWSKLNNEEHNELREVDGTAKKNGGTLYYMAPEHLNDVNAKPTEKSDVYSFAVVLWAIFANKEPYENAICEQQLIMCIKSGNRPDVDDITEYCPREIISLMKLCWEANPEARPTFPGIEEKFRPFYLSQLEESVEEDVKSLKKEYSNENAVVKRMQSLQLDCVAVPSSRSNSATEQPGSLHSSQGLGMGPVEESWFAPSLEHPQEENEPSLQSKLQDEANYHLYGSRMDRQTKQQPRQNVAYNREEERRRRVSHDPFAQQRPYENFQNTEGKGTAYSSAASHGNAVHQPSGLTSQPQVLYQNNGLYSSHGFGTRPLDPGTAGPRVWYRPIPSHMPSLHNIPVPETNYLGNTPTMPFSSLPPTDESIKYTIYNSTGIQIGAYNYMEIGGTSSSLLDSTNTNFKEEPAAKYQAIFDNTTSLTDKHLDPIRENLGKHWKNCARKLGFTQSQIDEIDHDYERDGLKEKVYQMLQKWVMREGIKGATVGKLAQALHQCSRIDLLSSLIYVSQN
UniProt P20333, residues 23-461: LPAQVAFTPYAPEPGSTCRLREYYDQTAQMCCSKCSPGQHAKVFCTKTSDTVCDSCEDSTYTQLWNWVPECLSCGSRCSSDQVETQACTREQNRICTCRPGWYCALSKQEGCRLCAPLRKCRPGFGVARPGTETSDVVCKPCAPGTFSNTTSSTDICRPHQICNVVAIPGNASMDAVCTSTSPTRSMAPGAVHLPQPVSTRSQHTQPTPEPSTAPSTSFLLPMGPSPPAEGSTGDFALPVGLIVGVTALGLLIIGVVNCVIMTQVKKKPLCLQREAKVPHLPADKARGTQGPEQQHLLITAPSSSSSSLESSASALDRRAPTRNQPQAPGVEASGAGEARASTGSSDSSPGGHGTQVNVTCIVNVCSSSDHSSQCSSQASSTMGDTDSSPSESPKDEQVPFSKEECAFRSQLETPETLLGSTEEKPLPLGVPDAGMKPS
UniProt O00463: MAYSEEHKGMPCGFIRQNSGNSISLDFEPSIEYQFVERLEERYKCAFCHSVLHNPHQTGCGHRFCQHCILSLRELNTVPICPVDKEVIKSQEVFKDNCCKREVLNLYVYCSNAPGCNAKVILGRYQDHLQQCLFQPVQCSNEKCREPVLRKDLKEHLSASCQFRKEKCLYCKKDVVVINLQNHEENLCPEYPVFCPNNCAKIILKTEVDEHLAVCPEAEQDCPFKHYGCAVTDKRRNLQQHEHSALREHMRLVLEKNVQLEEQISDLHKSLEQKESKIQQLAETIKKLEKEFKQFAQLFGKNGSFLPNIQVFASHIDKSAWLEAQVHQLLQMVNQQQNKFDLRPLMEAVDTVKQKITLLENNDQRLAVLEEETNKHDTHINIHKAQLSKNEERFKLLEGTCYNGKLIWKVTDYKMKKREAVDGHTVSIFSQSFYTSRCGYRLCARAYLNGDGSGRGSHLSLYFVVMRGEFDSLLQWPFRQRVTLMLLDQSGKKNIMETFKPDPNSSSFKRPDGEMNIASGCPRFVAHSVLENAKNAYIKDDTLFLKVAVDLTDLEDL
UniProt P25942, residues 21-277: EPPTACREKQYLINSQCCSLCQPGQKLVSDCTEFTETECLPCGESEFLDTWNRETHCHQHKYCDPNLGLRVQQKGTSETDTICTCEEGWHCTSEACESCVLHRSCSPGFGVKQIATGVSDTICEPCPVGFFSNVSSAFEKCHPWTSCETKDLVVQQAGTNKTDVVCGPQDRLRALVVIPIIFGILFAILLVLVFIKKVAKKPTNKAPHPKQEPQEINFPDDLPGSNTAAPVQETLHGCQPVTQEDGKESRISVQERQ

What was measured:
RIP [1] = biological target: RIP (UniProt Q13546); assay: yeast two-hybrid, colour formation on X-gal (column = prey, row = bait)
TRAF2 [2] = biological target: T1, TRAF2 (UniProt Q12933); assay: as above
T1 sequence (looked up): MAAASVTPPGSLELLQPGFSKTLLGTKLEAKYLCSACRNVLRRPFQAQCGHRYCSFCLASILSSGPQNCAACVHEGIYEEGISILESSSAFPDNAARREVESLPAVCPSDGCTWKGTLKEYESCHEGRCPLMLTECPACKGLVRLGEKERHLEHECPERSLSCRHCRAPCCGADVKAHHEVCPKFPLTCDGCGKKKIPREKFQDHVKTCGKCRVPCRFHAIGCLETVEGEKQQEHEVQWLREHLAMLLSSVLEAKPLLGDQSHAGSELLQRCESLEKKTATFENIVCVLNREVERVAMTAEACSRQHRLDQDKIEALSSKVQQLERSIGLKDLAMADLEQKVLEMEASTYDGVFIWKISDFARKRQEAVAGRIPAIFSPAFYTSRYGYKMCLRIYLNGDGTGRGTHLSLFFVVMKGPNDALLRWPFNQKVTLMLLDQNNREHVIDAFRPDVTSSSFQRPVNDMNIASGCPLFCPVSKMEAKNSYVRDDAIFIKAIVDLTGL

TRAF2 [3] = biological target: T1, TRAF2; assay: yeast two-hybrid, 4F2 as prey and TRAF2 as bait
RIP [4] = biological target: RIP (UniProt Q13546); assay: yeast two-hybrid
TRAF2, Q12933 [5] = biological target: T2, TRAF2, Q12933; assay: yeast two-hybrid, colour formation on X-gal (column = prey, row = bait); conditions: remark: other sources report otherwise
T2 chain: T1 sequence (looked up)

TRAF2, Q12933 [6] = biological target: T2, TRAF2, Q12933; assay: yeast two-hybrid; conditions: remark: other sources report otherwise
TRAF2, Q12933 [7] = biological target: T2, TRAF2, Q12933; assay: yeast two-hybrid, TTRAP as prey and TRAF2 as bait; conditions: remark: other sources report otherwise
[8] = biological target: TNF-RII expressed in 293T cells (UniProt P20333); assay: co-immunoprecipitation from transfected 293T cells, IP of TNF-RII with utr4, Western blot
[9] = biological target: Flag-tagged human TRAF5 (human) (UniProt O00463); assay: co-immunoprecipitation, IP of Flag-tagged TRAF5, Western blot for HA-tagged TTRAP
[10] = biological target: TNF-RII expressed in 293T cells (UniProt P20333); assay: co-immunoprecipitation from 293T cells with 50 mM NaF, 1 mM Na3P2O7, 1 mM Na3VO4
[11] = biological target: Flag-tagged human TRAF5 (human) (UniProt O00463); assay: co-immunoprecipitation from mammalian cells
TRADD = biological target: T3, TRADD (UniProt Q15628); assay: yeast two-hybrid, colour formation on X-gal (column = prey, row = bait)
T3 sequence (looked up): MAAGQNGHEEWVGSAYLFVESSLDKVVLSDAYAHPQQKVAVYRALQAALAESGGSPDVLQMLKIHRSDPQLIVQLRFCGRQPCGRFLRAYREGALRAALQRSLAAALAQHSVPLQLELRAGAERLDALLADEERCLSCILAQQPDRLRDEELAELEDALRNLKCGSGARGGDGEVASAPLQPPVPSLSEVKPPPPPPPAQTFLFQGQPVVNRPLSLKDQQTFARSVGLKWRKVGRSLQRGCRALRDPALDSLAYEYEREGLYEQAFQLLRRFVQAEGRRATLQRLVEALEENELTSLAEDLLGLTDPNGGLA

[12] = biological target: CD40 over-expressed in 293T human embryonic kidney cells (UniProt P25942); assay: co-immunoprecipitation after over-expression in 293T cells

Measured: binding

B1: 4F2, TTRAP deletion mutant, amino acids 54 to 362 (protein)
chain: MERALNSYFEPPVEESALERRPETISEPKTYVDLTNEETTDSTTSKISPSEDTQQENGSMFSLITWNIDGLDLNNLSERARGVCSYLALYSPDVIFLQEVIPPYYSYLKKRSSNYEIITGHEEGYFTAIMLKKSRVKLKSQEIIPFPSTKMMRNLLCVHVNVSGNELCLMTSHLESTRGHAAERMNQLKMVLKKMQEAPESATVIFAGDTNLRDREVTRCGGLPNNIVDVWEFLGKPKHCQYTWDTQMNSNLGITAACKLRFDRIFFRAAAEEGHIIPRSLDLLGLEKLDCGRFPSDHWGLLCNLDIIL
binds: RIP [1] | TRAF2 [2] | TRAF2 [3] | RIP [4]

B2: TTRAP (TRAF and TNF receptor associated protein), full-length human, O95551 1-362 (protein)
chain: MELGSCLEGGREAAEEEGEPEVKKRRLLCVEFASVASCDAAVAQCFLAENDWEMERALNSYFEPPVEESALERRPETISEPKTYVDLTNEETTDSTTSKISPSEDTQQENGSMFSLITWNIDGLDLNNLSERARGVCSYLALYSPDVIFLQEVIPPYYSYLKKRSSNYEIITGHEEGYFTAIMLKKSRVKLKSQEIIPFPSTKMMRNLLCVHVNVSGNELCLMTSHLESTRGHAAERMNQLKMVLKKMQEAPESATVIFAGDTNLRDREVTRCGGLPNNIVDVWEFLGKPKHCQYTWDTQMNSNLGITAACKLRFDRIFFRAAAEEGHIIPRSLDLLGLEKLDCGRFPSDHWGLLCNLDIIL
binds: TRAF2, Q12933 [5] | TRAF2, Q12933 [6] | TRAF2, Q12933 [7]

B3: HA-tagged TTRAP (protein, not shown: small tags and cut ends)
chain: B2 chain
binds: [8] | [9] | [10] | [11]

B4: TTRAP (TRAF and TNF receptor associated protein), full-length human (protein)
chain: B2 chain
binds: TRADD | RIP [1] | RIP [4] | [12]
